Earlier results in patent publication US6632422B2, “Antiperspirant and deodorant products and methods for their use” (priority 2000, dated 2003).
At least one structure is not confirmed: it was looked up by name or label, or the drawing left a doubt.

System: aortic smooth muscle cells of rats
Conditions: cited from earlier work

COc1ccc2cc1Oc1ccc(cc1)C[C@H]1c3cc(c(OC)cc3CCN1C)Oc1c(OC)c(OC)cc3c1[C@H](C2)N(C)CC3 [Tetrandrine, tetrandrine]
effect on calcium influx: capable of inhibiting calcium influx
